Record: PubChem BioAssay AID504764 (Drosophila RNAi Screening Center, 2011)
The deposit covers about 22,000 reagents; shown is an unselected part of those that have a named target and a result. Over the whole deposit, 403 (1.9%) are marked active. 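Unnormalised raw counts per well; ratio z-scores behind the hit calls and whether each hit raises or lowers signal are not deposited.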 Names joined by + are all predicted targets of the reagent. Not given: the amount of reagent.

Assay: 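Genes whose knock-down alters Notch-dependent transcription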 (primary screen)
Cell system: Drosophila Kc167 cells
Reagents: long dsRNA against Drosophila genes
Duration: about 5 days (4 days dsRNA, then 24 h after transfection)
Treatment: transfection of constitutively active membrane-tethered Notch lacking the extracellular domain, read 24 h later
Measured: 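Light from a Notch-responsive E(spl)m3 luciferase reporter under active Notch, with control-promoter and no-Notch reporter wells to normalise; raw counts from paired wells a and b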
Reading the numbers: induced reporter light, run 1, well a and induced reporter light, run 1, well b: higher = more light from the Notch target reporter with active Notch; control promoter light, run 1, well a and control promoter light, run 1, well b: higher = more light from the viral control promoter (cell number, transfection, viability); uninduced reporter light, run 1, well a: higher = more light from the Notch target reporter without active Notch
Rule for the call: 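Hit if the duplicate-averaged log2 ratio of induced to control-promoter light gives a plate-wise z beyond ±2, or induced to uninduced beyond ±1.8; weak-control or discordant-duplicate wells dropped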
Calls: active = modifier hit (raised or lowered Notch signal); inactive = not a hit

predicted target | amplicon | induced reporter light, run 1, well a | induced reporter light, run 1, well b | control promoter light, run 1, well a | control promoter light, run 1, well b | uninduced reporter light, run 1, well a | Outcome
CG11322 | DRSC02142 | 56360 | 51125 | 65185 | 49830 | 3825 | inactive
dwg | DRSC18766 | 1.91e5 | 1.97e5 | 2.40e5 | 3.00e5 | 13570 | inactive
CG15362 | DRSC00392 | 1.26e5 | 1.40e5 | 1.04e5 | 58880 | 8480 | inactive
Pburs | DRSC02483 | 1.35e5 | 1.28e5 | 93405 | 1.33e5 | 11490 | inactive
CG31688 + CG31687 | DRSC02116 | 28665 | 28360 | 19885 | 26145 | 2820 | inactive
MFS15 | DRSC06523 | 35945 | 31525 | 34020 | 44460 | 3810 | inactive
CG13077 | DRSC02181 | 55680 | 38050 | 43685 | 54555 | 2368 | inactive
dysc | DRSC10273 | 1.02e5 | 81085 | 1.12e5 | 1.20e5 | 6830 | inactive
dysc | DRSC11040 | 1.53e5 | 1.21e5 | 2.61e5 | 2.03e5 | 13510 | inactive
ssh | DRSC16730 | 1.49e5 | 1.57e5 | 1.85e5 | 1.76e5 | 10605 | inactive
CG4815 | DRSC15653 | 1.52e5 | 1.23e5 | 1.77e5 | 1.81e5 | 14428 | inactive

2 entries from above, reduced to “control promoter light, run 1, well a”:
CG31688 + CG31687 [DRSC02116] = 19885
MFS15 [DRSC06523] = 34020

Additional entries follow:
predicted target | amplicon | induced reporter light, run 1, well a | induced reporter light, run 1, well b | control promoter light, run 1, well a | control promoter light, run 1, well b | uninduced reporter light, run 1, well a | Outcome
Trissin | DRSC14994 | 2.97e5 | 3.29e5 | 2.61e5 | 2.70e5 | 18400 | inactive
CG34458 | DRSC06925 | 92365 | 77890 | 87305 | 1.28e5 | 6485 | inactive
CG7099 | DRSC03006 | 4.09e5 | 3.58e5 | 2.57e5 | 2.16e5 | 20630 | active
dbe | DRSC00811 | 1.56e5 | 1.63e5 | 2.32e5 | 2.14e5 | 15430 | inactive
Sxl + CG14425 (retired record) | DRSC18721 | 1.87e5 | 1.85e5 | 1.85e5 | 2.06e5 | 15090 | inactive
Sxl + CG14425 (retired record) | DRSC18722 | 79695 | 77855 | 83500 | 80350 | 5170 | active
Atx2 | DRSC15727 | 2155 | 1255 | 2525 | 2355 | 985 | inactive
CG5177 | DRSC02824 | 1.68e5 | 1.64e5 | 1.80e5 | 1.93e5 | 14560 | inactive
Eig71Ei | DRSC11156 | 1.53e5 | 1.59e5 | 1.77e5 | 1.72e5 | 7470 | inactive
CG10097 + CG10096 | DRSC14189 | 1.15e5 | 1.51e5 | 1.01e5 | 91640 | 11145 | inactive
CG10097 + CG10096 | DRSC14190 | 78240 | 79490 | 79655 | 51925 | 4940 | inactive
CG6885 | DRSC10740 | 1.86e5 | 1.65e5 | 2.68e5 | 2.14e5 | 10230 | inactive
Ugt36A1 + CG15418 | DRSC00432 | 1.64e5 | 1.69e5 | 1.98e5 | 1.76e5 | 11185 | inactive
Sys1 | DRSC14372 | 88400 | 80670 | 83840 | 73645 | 5855 | inactive
CG14931 | DRSC02413 | 1.27e5 | 1.89e5 | 72315 | 1.14e5 | 17170 | inactive
5-HT1A | DRSC05030 | 93625 | 73585 | 1.15e5 | 92935 | 6010 | inactive
conv | DRSC07213 | 63145 | 85385 | 93505 | 94740 | 6340 | inactive
CG6664 | DRSC10690 | 1.29e5 | 1.58e5 | 87665 | 1.15e5 | 11750 | inactive
CG17572 | DRSC02629 | 31610 | 32990 | 35890 | 50520 | 2000 | inactive
7SLRNA:CR42652 + 7SLRNA:CR32864 | DRSC22968 | – | – | – | – | – | active
drk | DRSC07606 | 1.08e5 | 87325 | 33975 | 36170 | 10415 | inactive
CG12446 | DRSC20618 | 77425 | 89605 | 75625 | 95690 | 9892 | inactive
Blos3 | DRSC09573 | 1.70e5 | 2.19e5 | 2.76e5 | 2.94e5 | 14310 | inactive
